# Where a name gives a salt, the structure may show the parent alone. ± gives the standard deviation of the averaged measurements. Some of the results follow. Most values come without repeats; read them as rough.
# Tested on: RAW 264.7
# Assay: HMGB1-induced TNF-alpha production relative to HMGB1-stimulated control; higher = more TNF-alpha secretion (less inhibition)
# Conditions: stimulus: HMGB1 5 ug/ml, 18 h
# [1] = compound concentration: 1 ug/ml
SMILES,HMGB1-induced TNF-alpha production (compound concentration: 3 uM),HMGB1-induced TNF-alpha production [1]
COC(=O)N[C@H](C(=O)N[C@@H](Cc1ccccc1)[C@@H](O)CN(Cc1ccc(-c2ccccn2)cc1)NC(=O)[C@@H](NC(=O)OC)C(C)(C)C)C(C)(C)C [Atazanavir],94.4%,–
N.N.O=C([O-])C[O-].[Pt+2] [Nedaplatin],116%,–
CCCCCCCCCC[Si](C)(C)CCC(=O)NC(Cc1ccc(C)cc1)c1ccccc1 (stereo not drawn) [Sandoz 58-035],99.3%,–
OC[C@H]1O[C@@H](n2cnc3c(NCc4ccccc4)ncnc32)[C@H](O)[C@@H]1O [6-Benzylaminopurine riboside],–,77.5%
COc1ccc(C[C@H](N)C(=O)N[C@H]2[C@@H](O)[C@H](n3cnc4c(N(C)C)ncnc43)O[C@@H]2CO)cc1,84.6%,–
COc1ccc(C[C@H](N)C(=O)N[C@H]2[C@@H](O)[C@H](n3cnc4c(N(C)C)ncnc43)O[C@@H]2CO)cc1 [Puromycin],108%,–
CCCCC/C=C/CCC(=O)N[C@H]1[C@H](Oc2c3cc4cc2Oc2ccc(cc2Cl)[C@@H](O[C@@H]2O[C@H](CO)[C@@H](O)[C@H](O)[C@H]2NC(C)=O)[C@@H]2NC(=O)[C@H](NC(=O)[C@@H]4NC(=O)[C@H]4NC(=O)C(Cc5ccc(c(Cl)c5)O3)NC(=O)[C@H](N)c3ccc(O)c(c3)Oc3cc(O)cc4c3)c3ccc(O)c(c3)-c3c(OC4O[C@H](CO)[C@@H](O)[C@H](O)[C@@H]4O)cc(O)cc3[C@@H](C(=O)O)NC2=O)O[C@H](CO)[C@@H](O)[C@@H]1O (stereo partly drawn) [TEICOPLANIN [A(2-1) shown]],101%,–
[O-][n+]1cccc(CO)c1,91.1%,–
COCc1nc2c([nH]1)c(=O)n(C)c(=O)n2CC(C)C [8-Methoxymethyl-3-isobutyl-1-methylxanthine],106%,–
C[C@H]1NC(=O)NC1=O [Methylhydantoin-5-(D)],110%,–
Cc1ccnc(NS(=O)(=O)c2ccc(N)cc2)n1 [Sulfamerazine],106%,–
Cc1ccnc(NS(=O)(=O)c2ccc(N)cc2)n1,93.5%,–
NC(=O)OCC(COC(N)=O)c1ccccc1 [Felbamate],89.8 ± 10%,–
CCC[S+]([O-])c1ccc2[nH]c(NC(=O)OC)nc2c1 (stereo not drawn) [Ricobendazole],86.2%,–
"O=c1c(O)c(-c2ccccc2)oc2cccc(O)c12 [3,5-Dihydroxyflavone]",–,49.4%
"CCCCS(=N)(=O)CCC(N)C(=O)O (racemic) [DL-Buthionine-[S,R]-sulfoximine]",103%,–
N=C(N)NCc1cccc(I)c1 [Iobenguane sulfate],78.6%,–
CC(C)n1c(/C=C/C(O)CC(O)CC(=O)O)c(-c2ccc(F)cc2)c2ccccc21 (stereo not drawn),127%,–
CC(C)n1c(/C=C/C(O)CC(O)CC(=O)O)c(-c2ccc(F)cc2)c2ccccc21 (stereo not drawn) [Fluvastatin],168%,–
CC(C)n1c(/C=C/C(O)CC(O)CC(=O)O)c(-c2ccc(F)cc2)c2ccccc21 (stereo not drawn) [Fluvastatin sodium salt],162%,–
O=c1ccn([C@@H]2O[C@H](CO)[C@@H](O)[C@H]2O)c(=O)[nH]1 [Uridine;  1-beta-D-Ribofuranosyluracil],–,69.6%
CC(C)(C)c1ccc(C(=O)CCCN2CCC(OC(c3ccccc3)c3ccccc3)CC2)cc1 [Ebastine],82.6%,–
CCCCCC(O)c1cccc(OCc2ccc3ccccc3n2)c1 (stereo not drawn),93%,–
CCCCNc1cc(C(=O)O)cc(S(N)(=O)=O)c1Oc1ccccc1 [Bumetanide],96.2 ± 22%,–
CCCCNc1cc(C(=O)O)cc(S(N)(=O)=O)c1Oc1ccccc1,88.5%,–

SMILES,HMGB1-induced TNF-alpha production (compound concentration: 3 uM),HMGB1-induced TNF-alpha production [1]
CNC(=O)c1c(I)c(C(=O)NCC(=O)Nc2c(I)c(C(=O)O)c(I)c(C(=O)NCCO)c2I)c(I)c(N(C)C(C)=O)c1I [Ioxaglic acid],141%,–
CC(=O)Oc1ccccc1C(=O)Oc1ccccc1C(=O)O [Acetylsalicylsalicylic acid],71.2%,–
O=c1ncc(F)c[nH]1 [5-fluoro-2-pyrimidone],107%,–
CCN(CC)CCOC(=O)c1ccc(N)cc1 [Procaine hydrochloride],87.5 ± 27%,–
CCN(CC)CCOC(=O)c1ccc(N)cc1,88.6%,–
Cn1ccnc1 [1-Methylimidazole],107%,–
CCOC(=O)[C@@H](N)Cc1ccccc1 [Phenylalanine ethyl ester hydrochloride],–,65.3%
NC1CCN(O)C1=O (racemic),96.5%,–
CC[C@H](C)C(=O)O[C@H]1C[C@@H](C)C=C2C=C[C@H](C)[C@H](CC[C@@H]3C[C@@H](O)CC(=O)O3)[C@H]21,91.9%,–
CC[C@H](C)C(=O)O[C@H]1C[C@@H](C)C=C2C=C[C@H](C)[C@H](CC[C@@H]3C[C@@H](O)CC(=O)O3)[C@H]21 [Lovastatin],115 ± 40%,–
CC[C@H](C)C(=O)O[C@H]1C[C@@H](C)C=C2C=C[C@H](C)[C@H](CC[C@@H]3C[C@@H](O)CC(=O)O3)[C@H]21 [Mevinolin; Lovastatin],–,86.3%
Cc1c(C)c2c(c(C)c1O)CCC(C)(C(=O)O)O2 (stereo not drawn) [Trolox],54%,–
COc1cc2oc(-c3ccccc3)cc(=O)c2cc1OC,–,65.9%
O=C1C2OCC(O2)[C@@H]2[C@@H]1[C@@H]1c3ccccc3C=CN1[C@H]2C(=O)c1ccccc1 (stereo partly drawn),–,39.9%
CC(=O)CCCCn1cnc2c1c(=O)n(C)c(=O)n2C,97%,–
CC(=O)N[C@@H](CS)C(=O)O [N-Acetyl-L-Cysteine],87.6%,–
CC(=O)N[C@@H](CS)C(=O)O,85.3%,–
CC(=O)N[C@@H](CS)C(=O)O [Acetylcysteine],91.5%,–
"O=c1cc(-c2ccccc2)[nH]c2nc(Cl)ccc12 [7-Chloro-4-hydroxy-2-phenyl-1,8-naphthyridine]",84.6%,–
O=c1[nH]c(=O)c2nc3ccccc3nc2[nH]1 [Alloxazine],95%,–
N#C/C(=C\c1ccc(O)c(O)c1)C(=O)NCCc1ccccc1 [Tyrphostin AG 698],131%,–
CC(=O)O[C@H]1C[C@@]2(C)[C@@H](C[C@@H](O)[C@H]3[C@@]4(C)CC[C@@H](O)[C@@H](C)[C@@H]4CC[C@@]32C)/C1=C(\CCC=C(C)C)C(=O)O,73.8%,–
CC(=O)O[C@H]1C[C@@]2(C)[C@@H](C[C@@H](O)[C@H]3[C@@]4(C)CC[C@@H](O)[C@@H](C)[C@@H]4CC[C@@]32C)/C1=C(\CCC=C(C)C)C(=O)O [Fusidic acid sodium salt],47.6%,–
CC(=O)O[C@H]1C[C@@]2(C)[C@@H](C[C@@H](O)[C@H]3[C@@]4(C)CC[C@@H](O)[C@@H](C)[C@@H]4CC[C@@]32C)/C1=C(\CCC=C(C)C)C(=O)O [Fusidic acid sodium],82.2%,–
O=c1[nH]c2cc(C(F)(F)F)ccc2n1-c1cc(C(F)(F)F)ccc1O,103%,–

SMILES,HMGB1-induced TNF-alpha production (compound concentration: 3 uM),HMGB1-induced TNF-alpha production [1]
COc1cc(C2Oc3cc([C@H]4Oc5cc(O)cc(O)c5C(=O)[C@@H]4O)ccc3OC2CO)ccc1O (stereo partly drawn),77.9%,–
O=c1cc(-c2ccccc2)oc2cc(O)c(O)c(O)c12 [Baicalein],–,68.3%
"COc1ccc(-c2oc3cc(OC)ccc3c(=O)c2O)cc1 [4',7-Dimethoxy-3-hydroxyflavone]",–,78.4%
CC(C)CCCC(C)N (stereo not drawn),90.8%,–
CN(C)CCn1nnnc1SCC1=C(C(=O)O)N2C(=O)[C@@H](NC(=O)Cc3csc(N)n3)[C@H]2SC1 [Cefotiam hydrochloride],88.6%,–
N[C@@H](CCCC(=O)O)C(=O)O [L-2-aminoadipic acid],83.5%,–
CC1(C)C[C@@H]1C(=O)N/C(=C\CCCCSC[C@H](N)C(=O)O)C(=O)O [Cilastatin],93%,–
CC1(C)C[C@@H]1C(=O)N/C(=C\CCCCSC[C@H](N)C(=O)O)C(=O)O,93.3%,–
Cc1cc(Cn2cnc3c2C[C@@H](C(=O)O)N(C(=O)C(c2ccccc2)c2ccccc2)C3)ccc1N,77.5%,–
CCCCCCC(=O)OC1CC(C)(C)NC(C)(C)C1 [TMPH hydrochloride],112%,–
CCCCCC(=O)O[C@]1(C(C)=O)CC[C@H]2[C@@H]3CCC4=CC(=O)CC[C@]4(C)[C@H]3CC[C@@]21C,83.5%,–
Oc1cc2c(cc1O)CN(C(=S)NCCc1ccc(Cl)cc1)CCC2 [Capsazepine],81.5%,–
Cc1c(C)c2c(c(C)c1OC(=O)CCC(=O)O)CC[C@@](C)(CCC[C@H](C)CCC[C@H](C)CCCC(C)C)O2 [(+)-alpha-Tocopherol acid succinate],–,67.4%
C[C@@H]1C[C@H]2[C@@H]3C[C@H](F)C4=CC(=O)C=C[C@]4(C)[C@@]3(Cl)[C@@H](O)C[C@]2(C)[C@H]1C(=O)COC(=O)C(C)(C)C [Clocortolone pivalate],50.8%,–
Nc1nc(Cl)nc2c1ncn2[C@@H]1O[C@H](COP(=O)(O)OP(=O)(O)OP(=O)(O)O)[C@H](O)C1O (stereo partly drawn) [2-Chloroadenosine triphosphate tetrasodium],76%,–
NC[C@@H](O)c1ccc(O)c(O)c1 [L(-)-Norepinephrine bitartrate],56.1%,–
OC(c1cc(C(F)(F)F)nc2c(C(F)(F)F)cccc12)C1CCCCN1 (stereo not drawn) [Mefloquine hydrochloride],48.2%,–
OC(c1cc(C(F)(F)F)nc2c(C(F)(F)F)cccc12)C1CCCCN1 (stereo not drawn),93%,–
CNCCCC12CCC(c3ccccc31)c1ccccc12 [Maprotiline hydrochloride],76 ± 44%,–
CNCCCC12CCC(c3ccccc31)c1ccccc12 [Maprotilline HCl],105%,–
CNCCCC12CCC(c3ccccc31)c1ccccc12,89.9%,–
CNCCCC12CCC(c3ccccc31)c1ccccc12 [Maprotiline],93.5%,–
CC[C@H]1OC(=O)C[C@@H](O)[C@H](C)[C@@H](O[C@@H]2O[C@H](C)[C@@H](O)[C@H](N(C)C)[C@H]2O)[C@@H](CCN2C[C@H](C)C[C@H](C)C2)C[C@@H](C)C(=O)/C=C/C(C)=C/[C@@H]1CO[C@@H]1O[C@H](C)[C@@H](O)[C@@H](OC)[C@H]1OC,91.1%,–

# In another format: entries from further up.
SMILES | HMGB1-induced TNF-alpha production (compound concentration: 3 uM) | HMGB1-induced TNF-alpha production [1]
Cc1cc(Cn2cnc3c2C[C@@H](C(=O)O)N(C(=O)C(c2ccccc2)c2ccccc2)C3)ccc1N | 77.5% | –
CC[C@H]1OC(=O)C[C@@H](O)[C@H](C)[C@@H](O[C@@H]2O[C@H](C)[C@@H](O)[C@H](N(C)C)[C@H]2O)[C@@H](CCN2C[C@H](C)C[C@H](C)C2)C[C@@H](C)C(=O)/C=C/C(C)=C/[C@@H]1CO[C@@H]1O[C@H](C)[C@@H](O)[C@@H](OC)[C@H]1OC | 91.1% | –
